Test results from patent US20040259948A1, “Reciprocal regulation of inflammation and lipid metabolism by liver X receptors” (priority 2003, published 2004).
For at least one compound, name, drawing or mass did not settle the structure.

Key:
[1] = test system: Thioglycolate-elicited murine peritoneal macrophages; assay: LPS-stimulated macrophages: NO production, iNOS and ABCA1 mRNA; type: cell-based; conditions: 100 ng/ml LPS, 18 h; pretreated with 1 μM ligand; real-time quantitative PCR
Method: To investigate the role of LXRs in host defense, the influence of LXR agonists on macrophage responses to bacterial pathogens was tested. Thioglycolate-elicited peritoneal macrophages were infected in vitro with Escherichia coli. After 18 hours, expression of inducible nitric oxide synthase (iNOS) mRNA and nitric oxide (NO) production were assessed. […] This repression occurs over the same concentration range needed to induce the established LXR target gene ATP-binding cassette transporter A1 (ABCA1). A, LXR agonist inhibits nitrite production in response to bacterial infection. […] Cells were then infected with E. coli (A, B) or treated with 100 ng/ml LPS(C, D, E) as indicated. After 18 h, NO production was determined using a colorimetric assay (A, D), or mRNA levels were determined using real-time quantitative PCR assays (B, C, E). […]
The anti-inflammatory activity of LXR ligands can be separated from the induction of lipid metabolism genes such as ABCA1. […] NOx production was measured by colorimetric assay. […]
Cell culture and transfections. […] NO production was determined spectrophotometrically (Castrillo, A. et al. 2000 Mol Cell Biol 20:1692-1698).
RNA and protein analysis. […] Real-time quantitative PCR (TaqMan) analysis was performed using an Applied Biosystems 7700 sequence detector. […]

[2] = test system: Thioglycolate-elicited peritoneal macrophages; assay: Macrophage response to E. coli infection: iNOS mRNA and NO production; type: cell-based, murine; conditions: 18 h, pretreated with 1 μM ligand, real-time quantitative PCR

`CN(CCOc1ccc(CC2SC(=O)NC2=O)cc1)c1ccccn1` (centres unmarked) [rosiglitazone] was tested, and the “iNOS mRNA” value [1] was “minimal effects” and the “iNOS mRNA” value [2] was “minimal effects”.
